PubChem BioAssay AID1159578 – Peter MacCallum Cancer Centre, 2015
The whole screen tested about 18,000 reagents; this is an unselected part. About 1,030 of all reagents (5.7%) count as active. 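Inactive calls also include pools with fewer than 3300 nuclei, whose migration was not assessed.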 Raw values vary from plate to plate and are shown uncorrected. Further read-outs or replicates are left out here.

- Purpose: 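siRNA pools altering how lymphatic endothelial cells close a scratch wound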 (primary screen)
- Cell system: human lymphatic endothelial cells
- Reagent: siRNA pool against human genes, 40 nM
- Timing: 48 h after transfection
- Measured: 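Cells stained with dye and imaged after a scratch; covered wound area and nuclei counted, duplicates averaged, migration set against mock wells and turned into a robust z-score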
- Direction: migration robust z-score: higher = faster migration into the scratch; nuclei per well: higher = more cells in the well
- Active means: 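Pools averaging fewer than 3300 nuclei are never called; remaining pools count as changed when migration robust z lies outside -2 to 2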
- Calls: active = migration changed; inactive = no migration change, or too few cells

CCDC120 — migration robust z-score: -0.57; migration class with cell-count check: migration z between -2 and 2; enough cells; nuclei per well, duplicate mean: 7133; Call: inactive
UNG — migration robust z-score: 0.2; migration class with cell-count check: migration z between -2 and 2; enough cells; nuclei per well, duplicate mean: 4982; Call: inactive
ZNF711 — migration robust z-score: 0.36; migration class with cell-count check: migration z between -2 and 2; enough cells; nuclei per well, duplicate mean: 6781; Call: inactive
GPAA1 — migration robust z-score: -0.62; migration class with cell-count check: migration z between -2 and 2; enough cells; nuclei per well, duplicate mean: 5050; Call: inactive
MAP3K6 — migration robust z-score: 0.26; migration class with cell-count check: migration z between -2 and 2; enough cells; nuclei per well, duplicate mean: 5736; Call: inactive
POLR2K — migration robust z-score: 0.44; migration class with cell-count check: migration z between -2 and 2; enough cells; nuclei per well, duplicate mean: 5692; Call: inactive
IFT140 — migration robust z-score: 0.22; migration class with cell-count check: migration z between -2 and 2; enough cells; nuclei per well, duplicate mean: 6450; Call: inactive
OR1I1 — migration robust z-score: -3.28; migration class with cell-count check: under 3300 nuclei; migration not judged; nuclei per well, duplicate mean: 2964; Call: inactive
RIOK3 — migration robust z-score: 0.52; migration class with cell-count check: migration z between -2 and 2; enough cells; nuclei per well, duplicate mean: 6802; Call: inactive
EIF3G — migration robust z-score: -2.08; migration class with cell-count check: migration z below -2; enough cells; nuclei per well, duplicate mean: 4972; Call: active
PTGFR — migration robust z-score: 0.9; migration class with cell-count check: migration z between -2 and 2; enough cells; nuclei per well, duplicate mean: 6215; Call: inactive
RNASE6 — migration robust z-score: -0.26; migration class with cell-count check: migration z between -2 and 2; enough cells; nuclei per well, duplicate mean: 5834; Call: inactive
DNPEP — migration robust z-score: -1.45; migration class with cell-count check: migration z between -2 and 2; enough cells; nuclei per well, duplicate mean: 4150; Call: inactive
B3GAT1 — migration robust z-score: -0.9; migration class with cell-count check: migration z between -2 and 2; enough cells; nuclei per well, duplicate mean: 5068; Call: inactive

An excerpt taken from the entries so far, for reference:
ZNF711 — migration robust z-score: 0.36; migration class with cell-count check: migration z between -2 and 2; enough cells; nuclei per well, duplicate mean: 6781; Call: inactive
GPAA1 — migration robust z-score: -0.62; migration class with cell-count check: migration z between -2 and 2; enough cells; nuclei per well, duplicate mean: 5050; Call: inactive
